Source: PubChem BioAssay AID504834 (National Center for Advancing Translational Sciences (NCATS), 2011)
About 22,000 (6.9%) of roughly 320,000 compounds were called active. Inconclusive results, whose numbers are uncertain, are shown with a selection of clear calls. Calls follow the shape of the dose curve; as a rule, active = well fitted inhibition curve with a large enough effect; inconclusive = small, poorly fitted or top-dose-only effect, or another doubt; inactive = no such curve, though single readings can be large or run the other way. Potencies of inconclusive entries are doubtful fits and often do not repeat.
Potency is read from the fitted curve at half-maximal effect.

Assay: Primary qHTS for delayed death inhibitors of the malarial parasite plastid, 96 hour incubation
Settings: P. falciparum luciferase reporter growth; series mostly up to 28.7 µM
Outline: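 96 h incubation, 37 C, 5% CO2, of luciferase-reporter P. falciparum-infected RBCs (2% hematocrit, 0.05% parasitemia final) with test compounds; endpoint luminescence.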
With `Cc1cccc2c1=NC(=O)/C(=C/c1c(O)[nH]c(=O)[nH]c1=O)C=2` the Potency was inconclusive: 18.5 µM [inhibitor, single point].
For `NS(=O)(=O)c1ccc(Nc2nc(-c3ccc(F)cc3)cs2)cc1`, the Potency was “inactive”.
In the case of `COc1ccc(-c2cc3cc(OC)c(OC)cc3c(C)n2)cc1`, the Potency was inconclusive: 11.7 µM [inhibitor, partial curve, poor fit].
In the case of `COc1cccc(NC(=O)N2CCCC2C(=O)NC2CCCCC2)c1` (stereo not given), the Potency was “inactive”.
With `CCc1ccc(Nc2n[n+](-c3ccccc3)c(-c3cc(OC)c(OC)cc3Br)s2)cc1` the Potency was active: 11.7 µM.
With `Cc1ccc(C2CC(c3cccs3)=NN2C(=O)CSc2nc(=O)n3ccc(C)cc3n2)cc1` (stereo not given) the Potency was inconclusive: 13.1 µM [inhibitor, single point].
With `Cc1c(C(=O)N2CCC(C)CC2)sc2ncnc(N(C)c3ccccc3)c12` the Potency was inconclusive: 9.28 µM [inhibitor, partial curve, poor fit].
For `COC(=O)c1ccc(NN=Nc2ccc(C)cc2)cc1`, the Potency was “inactive”.
With `COc1ccc(NC(=O)CCC2CCCCC2)cc1S(=O)(=O)N1CCCCC1` the Potency was inconclusive: 10.4 µM [inhibitor, single point].
For `Cc1cc(-c2nn(-c3ccccc3F)cc2CN(C)CC(O)CO)c(C)s1` (stereo not given), the Potency was inconclusive: 16.5 µM [inhibitor, single point].
For `CCC(C)[C@H](NC(=O)NCc1ccc(F)cc1)C(=O)O` (stereo not given in full), the Potency was “inactive”.
For `CCn1c(CN2CCN(c3ccc(Cl)cc3)CC2)nc2ccccc21`, the Potency was inconclusive: 14.7 µM [inhibitor, partial curve, poor fit].
For `CC(C)(C)OC(=O)N1CCN(C(=O)c2[nH]cnc2C(=O)N[C@@H](Cc2ccccc2)C(=O)OCc2ccccc2)CC1`, the Potency was inconclusive: 18.5 µM [inhibitor, single point].
For `O=C(COc1ccc(Cl)cc1Cl)NCc1ccco1`, the Potency was inconclusive: 0.0828 µM [inhibitor, full curve, poor fit].
With `COc1ccc(CCN2C(=O)CSC2=Nc2ccc(C(C)C)cc2)cc1OC` the Potency was inconclusive: 11.7 µM [inhibitor, partial curve, poor fit].
In the case of `Cc1cccc(-c2cc3c(N=O)c4ccccc4c-3n[nH]2)c1`, the Potency was “inactive”.
For `O=C(Nc1ncccc1O)c1ccc(S(=O)(=O)N2CCCC2)cc1`, the Potency was active: 2.08 µM.
With `C=CCn1c(C(CCCC)CC(C)O)n[nH]c1=S` (stereo not given) the Potency was “inactive”.
With `O=C(O)c1ccc(S(=O)(=O)c2ccc3c(c2)C(=O)N(c2ccc(Br)cc2)C3=O)cc1` the Potency was “inactive”.
For `CC(C)=CCSc1nnc([C@@H](NC(=O)OC(C)(C)C)C(C)C)o1`, the Potency was inconclusive: 18.5 µM [inhibitor, single point].
For `O=C(/C=C/c1ccc(Cl)cc1)NC1CCS(=O)(=O)C1` (stereo not given), the Potency was inconclusive: 4.15 µM [inhibitor, single point].
With `O=C(Nc1ccccc1N1CCOCC1)c1ccncc1` the Potency was “inactive”.
With `CCNc1ccc(S(=O)(=O)N(C)C)cc1NCC(=O)Nc1ccc(Br)cc1F` the Potency was inconclusive: 10.4 µM [inhibitor, partial curve].
With `CC[C@@]12C(=O)N(c3cccc(F)c3)C(=O)N1[C@H](c1ccc(F)cc1)[C@@H]1C(=O)N(C3CCCCC3)C(=O)[C@@H]12` the Potency was inconclusive: 18.5 µM [inhibitor, single point].
In the case of `COc1ccc(NC(=O)CN2C(=O)NC(C)(c3ccccc3)C2=O)c(OC)c1` (stereo not given), the Potency was “inactive”.
In the case of `Cc1cccc(-c2nnc(-c3cccc(NC(=O)Cc4cccs4)c3)o2)c1`, the Potency was active: 10.4 µM.
For `COc1cc(OCC(=O)NC(C)C)cc2c1C(=O)O[C@@H](C)CCCC(=O)CCCCC2`, the Potency was inconclusive: 18.5 µM [inhibitor, single point].
In the case of `C/C=C(/C(=C/C)c1ccc(O)cc1)c1ccc(O)cc1`, the Potency was inconclusive: 13.1 µM [inhibitor, single point].
In the case of `CCn1cc(CN2CCc3c([nH]c4ccccc34)C2c2cccc(OC)c2OC)c(C)n1` (stereo not given), the Potency was “inactive”.
With `COc1ccc(NC(=O)Cn2c(NCC(C)O)nc3ccccc32)cc1Cl` (stereo not given) the Potency was inconclusive: 18.5 µM [inhibitor, single point].
In the case of `CC(C)c1nc(NCCO)c2nnn(Cc3ccccc3)c2n1`, the Potency was “inactive”.
In the case of `COC(=O)CSc1[nH]c2ccc(Br)cc2c1[N+](=O)[O-]`, the Potency was “inactive”.
In the case of `[O-]/C(=C(\C(=S)Nc1cccc2ccccc12)[n+]1ccccc1)c1ccc(OC(F)F)cc1`, the Potency was active: 14.7 µM.
In the case of `O=[N+]([O-])c1cccc(C2CC(c3ccccc3)=NN2c2ccccc2)c1` (stereo not given), the Potency was inconclusive: 10.4 µM [inhibitor, single point].
For `CCOC(=O)C(CC)(CC)C(=O)/C=C/c1ccc(OC)cc1`, the Potency was inconclusive: 11.7 µM [inhibitor, partial curve].
In the case of `Cc1cc(NC(=O)CSc2nc3ccccc3n2CC(C)C)no1`, the Potency was inconclusive: 18.5 µM [inhibitor, single point].
With `CC(C(=O)N(C)C1CCS(=O)(=O)C1)N1C(=O)/C(=C/c2ccc(F)cc2)SC1=S` (stereo not given) the Potency was active: 11.7 µM.
For `COc1ccc(/C=C/C(=O)OCC(=O)c2c(C)[nH]c3ccccc23)cc1OC`, the Potency was inconclusive: 18.5 µM [inhibitor, single point].
With `CCN(CC)CCCOC(=O)C(c1ccccc1)c1ccccc1` the Potency was inconclusive: 18.5 µM [inhibitor, single point].
In the case of `O=C1C(=O)N(CCOCCO)C(c2ccccn2)/C1=C(\O)c1ccccc1` (stereo not given), the Potency was inconclusive: 4.15 µM [inhibitor, partial curve, poor fit].
For `Cc1nn(-c2ccccc2)c(N2CCCCC2)c1/C=N/O`, the Potency was “inactive”.
For `CCCCOc1ccc(/C(N)=N/O)cc1`, the Potency was inconclusive: 10.4 µM [inhibitor, single point].
In the case of `CSCC[C@H](N)C(=O)N1CCC(C(=O)N[C@H](C)C(=O)NC(C)c2ccccc2)CC1` (stereo not given in full), the Potency was “inactive”.
With `Fc1ccc(/C=C2\CCCC3=C2Nc2ncnn2C3c2ccc(F)cc2)cc1` (stereo not given) the Potency was inconclusive: 3.7 µM [inhibitor, partial curve, poor fit].
For `COc1ccccc1C(=O)NCCSCc1c(F)cccc1Cl`, the Potency was active: 10.4 µM.
